Measured data: PubChem BioAssay AID1259254 (NCATS, 2017)
Here is an unselected part of about 59,000 reagents. About 1,550 of all reagents (2.6%) were called active. 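G2 share is only a proxy for re-replication; each gene was hit by three separate siRNAs, and active genes were retested.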 The raw values are shown without normalisation. The numbers tell different reagents against one gene apart. No sequences are given here. Not given: the amount of reagent.

- Aim: 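Genome-wide screen for genes that prevent DNA re-replication in cancer cells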 (primary screen)
- System: human HCT116 colorectal cancer cells
- Reagents: single siRNA against human genes
- Duration: 3 days
- Read-out: 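Nuclei stained with Hoechst and imaged; cell-cycle phase assigned by DNA content; G2 share scaled per plate, non-targeting siRNA 0%, GMNN siRNA 100%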
- Scale: G2 robust z-score and G2 cells, % of GMNN control: higher = more G2 cells, more excess DNA replication; raw share of cells in G2: higher = larger share of cells with G2 DNA content
- Active means: 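Active siRNAs have a G2 robust z of 5 or more median absolute deviations over the median, which in these data means about 38% or higher of GMNN control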

target gene	siRNA no.	G2 robust z-score	G2 cells, % of GMNN control	raw share of cells in G2 (%)	call
SPACA9 (sperm acrosome associated 9)	1	0.312	5.16	7.01	inactive
SPACA9 (sperm acrosome associated 9)	2	-0.312	0.771	4.45	inactive
SPACA9 (sperm acrosome associated 9)	3	0.322	5.23	5.13	inactive
JADE2 (jade family PHD finger 2)	1	2.05	17.4	13.3	inactive
JADE2 (jade family PHD finger 2)	2	-1.27	-5.98	2.15	inactive
JADE2 (jade family PHD finger 2)	3	-0.241	1.27	4.3	inactive
ACTRT3 (actin related protein T3)	1	2.28	19	13.4	inactive
ACTRT3 (actin related protein T3)	2	-0.0429	2.67	5.16	inactive
ACTRT3 (actin related protein T3)	3	0.314	5.17	6.7	inactive
ASF1A (anti-silencing function 1A histone chaperone)	1	-0.629	-1.46	2.79	inactive
ASF1A (anti-silencing function 1A histone chaperone)	2	1.7	14.9	10	inactive
ASF1A (anti-silencing function 1A histone chaperone)	3	2	17	11.3	inactive
MLH3 (mutL homolog 3)	1	-0.931	-3.58	4.54	inactive
MLH3 (mutL homolog 3)	2	-0.587	-1.16	3.8	inactive
MLH3 (mutL homolog 3)	3	-0.631	-1.47	3.51	inactive
CD300A (CD300a molecule)	1	1.53	13.7	11.9	inactive
CD300A (CD300a molecule)	2	-0.914	-3.46	3	inactive
CD300A (CD300a molecule)	3	-0.873	-3.17	2.78	inactive
LRRN4 (leucine rich repeat neuronal 4)	1	0.121	3.82	4.97	inactive
LRRN4 (leucine rich repeat neuronal 4)	2	-0.472	-0.354	2.84	inactive
LRRN4 (leucine rich repeat neuronal 4)	3	-1.05	-4.42	1.36	inactive
SCN9A (sodium voltage-gated channel alpha subunit 9)	1	3.08	24.7	14.3	inactive
SCN9A (sodium voltage-gated channel alpha subunit 9)	2	-0.121	2.11	5.5	inactive
SCN9A (sodium voltage-gated channel alpha subunit 9)	3	-0.229	1.36	4.9	inactive
FUCA1 (alpha-L-fucosidase 1)	1	0.822	8.75	6.77	inactive
FUCA1 (alpha-L-fucosidase 1)	2	-0.763	-2.4	4.37	inactive
FUCA1 (alpha-L-fucosidase 1)	3	-0.521	-0.695	5	inactive
RPS15AP17 (ribosomal protein S15a pseudogene 17)	1	0.00446	3	6.03	inactive
RPS15AP17 (ribosomal protein S15a pseudogene 17)	2	5.19	39.5	18.2	active
RPS15AP17 (ribosomal protein S15a pseudogene 17)	3	4.84	37	18.2	inactive
NR2F1 (nuclear receptor subfamily 2 group F member 1)	1	-0.882	-3.24	4.59	inactive
NR2F1 (nuclear receptor subfamily 2 group F member 1)	2	-0.873	-3.18	2.91	inactive
NR2F1 (nuclear receptor subfamily 2 group F member 1)	3	-0.831	-2.88	3.56	inactive
TAFAZZIN (tafazzin, phospholipid-lysophospholipid transacylase)	1	-1.02	-4.19	3.54	inactive
TAFAZZIN (tafazzin, phospholipid-lysophospholipid transacylase)	2	1.04	10.3	7.56	inactive
TAFAZZIN (tafazzin, phospholipid-lysophospholipid transacylase)	3	-0.803	-2.68	3.66	inactive
TMEM41A (transmembrane protein 41A)	1	0.552	6.85	5.1	inactive
TMEM41A (transmembrane protein 41A)	2	-0.546	-0.872	3.71	inactive
TMEM41A (transmembrane protein 41A)	3	0.0391	3.24	4.02	inactive
APOBEC3C (apolipoprotein B mRNA editing enzyme catalytic subunit 3C)	1	-0.201	1.55	6.87	inactive
APOBEC3C (apolipoprotein B mRNA editing enzyme catalytic subunit 3C)	2	3.34	26.5	13	inactive
APOBEC3C (apolipoprotein B mRNA editing enzyme catalytic subunit 3C)	3	-0.435	-0.093	3.96	inactive
GOLGA7B (golgin A7 family member B)	1	-1.1	-4.8	2.06	inactive
GOLGA7B (golgin A7 family member B)	2	-0.621	-1.4	2.96	inactive
GOLGA7B (golgin A7 family member B)	3	-0.345	0.541	5.02	inactive
MDC1 (mediator of DNA damage checkpoint 1)	1	0.294	5.04	7.61	inactive
MDC1 (mediator of DNA damage checkpoint 1)	2	0.471	6.28	6.56	inactive
MDC1 (mediator of DNA damage checkpoint 1)	3	-1.32	-6.31	1.11	inactive
GNG5 (G protein subunit gamma 5)	1	-0.26	1.14	4.06	inactive
GNG5 (G protein subunit gamma 5)	2	-1.01	-4.16	3.73	inactive
GNG5 (G protein subunit gamma 5)	3	1.96	16.8	11.6	inactive
COX7B2 (cytochrome c oxidase subunit 7B2)	1	1.65	14.6	8.82	inactive
COX7B2 (cytochrome c oxidase subunit 7B2)	2	-0.1	2.26	3.72	inactive
COX7B2 (cytochrome c oxidase subunit 7B2)	3	0.271	4.87	4.3	inactive
TMEM177 (transmembrane protein 177)	1	-0.12	2.12	5.33	inactive
TMEM177 (transmembrane protein 177)	2	-0.587	-1.16	3.8	inactive
TMEM177 (transmembrane protein 177)	3	2.96	23.8	8.89	inactive
NR1H3 (nuclear receptor subfamily 1 group H member 3)	1	2.9	23.4	13.6	inactive
NR1H3 (nuclear receptor subfamily 1 group H member 3)	2	-1.18	-5.33	2.19	inactive
NR1H3 (nuclear receptor subfamily 1 group H member 3)	3	-0.354	0.475	4.71	inactive
CEP44 (centrosomal protein 44)	1	1.26	11.8	5.61	inactive
CEP44 (centrosomal protein 44)	2	2.33	19.4	12.5	inactive
CEP44 (centrosomal protein 44)	3	-0.0609	2.54	5.41	inactive
S100A6 (S100 calcium binding protein A6)	1	-0.0939	2.31	5.77	inactive
S100A6 (S100 calcium binding protein A6)	2	-0.87	-3.16	3.48	inactive
S100A6 (S100 calcium binding protein A6)	3	-0.843	-2.96	3.16	inactive
CFAP65 (cilia and flagella associated protein 65)	1	-0.149	1.92	3.81	inactive
CFAP65 (cilia and flagella associated protein 65)	2	0.797	8.58	6.69	inactive
CFAP65 (cilia and flagella associated protein 65)	3	-0.0904	2.33	3.93	inactive

An excerpt from above, reduced to “G2 robust z-score”.
CEP44 (centrosomal protein 44) #1: 1.26
CEP44 (centrosomal protein 44) #2: 2.33
CEP44 (centrosomal protein 44) #3: -0.0609
S100A6 (S100 calcium binding protein A6) #1: -0.0939
